Experimental data taken from US7608242B2, “Peptide-chelate conjugates” (GE Healthcare Limited, priority 2001, dated 2009).
For some of these results: Part of at least one peptide drawing is inferred or uncertain, most often the ends. For some of these results: At least one compound was matched to its structure with a doubt left. Peptide text beside a SMILES is read from it. * marks the point of attachment. X1 = CCOC(C)SCC(=O)NC(CCCC(=O)*)C(=O)NCC(=O)NCC(=O)O

Key:
[1] = tested on: sub-cutaneous T84 tumours (T84 human colon carcinoma cells); assay: Biodistribution in a subcutaneous tumour model; format: in vivo, mouse; conditions: for Retention over 2 hours / RC at 2 hours p.i. / RR at 2 hours p.i. (relative retention): s.c. T84 tumour; for Tumour/liver: s.c. T84 tumour model, ratio
Experimental: The sub-cutaneous model was used as an appropriate initial in vivo screen. Briefly, mice (female nude CD-1, ca. 20 g; Charles River) were injected sub-cutaneously into the neck with T84 human colon carcinoma cells (0.1 ml, 1×10^8 cells/ml in medium) through a 23-gauge needle and allowed to develop tumours over 6-8 weeks.
At least three animals per test point were studied. Results are expressed as % injected dose per gram (% ID/g) of tissue.
Compounds were screened for their uptake into sub-cutaneous T84 tumours in the mouse (Table IV). This model allows assessment of the imageability of CA1-ST5-18 by allowing comparison between tumour and background tissue uptake.

T84 tumours = assay: ST receptor mediated uptake: co-injection of excess ST peptide; format: in vivo; conditions: 100 μg/mouse of ST peptide co-injected, nude mice bearing T84 tumours
[2] = tested on: sub-cutaneous Lewis lung tumours; assay: Uptake into a non colonic tumour; format: in vivo, mouse; conditions: C57BL/6 mice bearing s.c. Lewis lung tumours compared with colorectal tumours
[3] = tested on: xenograft tumours (T84, CaCO2, LS180, HT29, SW480); assay: Biodistribution in xenograft tumours with different ST receptor expression; format: in vivo; conditions: tumours of different ST receptor density
[4] = target: T1, ST receptor (rat intestinal membrane) (Rattus norvegicus, UniProt P23897); assay: Competition binding assay against [125I]ST1-17
T1 construct: in 96 well plates containing ca. 1 μg rat intestinal membrane; from tissue; host or cells: rat intestinal membrane
T1 sequence (P23897 23-1072): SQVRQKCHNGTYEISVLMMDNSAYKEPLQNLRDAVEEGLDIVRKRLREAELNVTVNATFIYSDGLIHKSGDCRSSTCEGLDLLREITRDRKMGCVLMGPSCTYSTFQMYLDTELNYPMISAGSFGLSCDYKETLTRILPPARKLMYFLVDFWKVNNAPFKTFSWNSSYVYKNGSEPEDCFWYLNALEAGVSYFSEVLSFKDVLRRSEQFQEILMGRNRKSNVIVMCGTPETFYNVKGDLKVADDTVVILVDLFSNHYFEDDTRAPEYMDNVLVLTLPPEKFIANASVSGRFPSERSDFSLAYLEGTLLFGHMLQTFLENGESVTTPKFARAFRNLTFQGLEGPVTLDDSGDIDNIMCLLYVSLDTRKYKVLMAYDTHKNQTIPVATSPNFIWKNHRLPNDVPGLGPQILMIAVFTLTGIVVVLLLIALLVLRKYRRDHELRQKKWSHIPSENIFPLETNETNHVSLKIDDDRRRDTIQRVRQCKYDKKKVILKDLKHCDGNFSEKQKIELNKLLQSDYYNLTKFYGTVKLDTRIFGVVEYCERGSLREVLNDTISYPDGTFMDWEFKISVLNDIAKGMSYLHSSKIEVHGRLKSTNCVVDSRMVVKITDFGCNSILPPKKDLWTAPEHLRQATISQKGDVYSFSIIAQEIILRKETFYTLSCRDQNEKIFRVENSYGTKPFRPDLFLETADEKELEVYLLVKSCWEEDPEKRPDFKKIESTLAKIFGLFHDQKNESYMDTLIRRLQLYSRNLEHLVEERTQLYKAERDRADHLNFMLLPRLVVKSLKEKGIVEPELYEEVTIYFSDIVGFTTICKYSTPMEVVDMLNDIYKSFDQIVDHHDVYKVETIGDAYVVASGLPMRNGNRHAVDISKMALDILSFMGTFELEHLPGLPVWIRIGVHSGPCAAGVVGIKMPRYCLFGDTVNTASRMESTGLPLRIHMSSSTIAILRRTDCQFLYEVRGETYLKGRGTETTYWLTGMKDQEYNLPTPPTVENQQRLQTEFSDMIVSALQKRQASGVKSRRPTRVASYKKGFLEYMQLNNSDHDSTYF
Experimental: Compounds were assessed for their potency by radioligand binding assay to determine inhibition constant (Ki) as a measure of potency of binding. Methods are described elsewhere, but briefly, [^125I]ST1-17 was competed with cold ST compounds (0.0001-50 μM) in 96 well plates containing ca. 1 μg rat intestinal membrane and incubated 1 hr, 37° C. Samples were filtered (GF/B filters, Whatman) to retrieve bound radiolabelled peptide and counted to determine % Bound/Free.
Potency of compounds was determined by inhibition constant (Ki) for their ability to compete with radioligand, [^125I]ST1-17.

[5] = tested on: sub-cutaneous T84 tumours; assay: Uptake of labelled conjugate and negative control into CRC tumours; format: in vivo, mouse; conditions: CD-1 nude mice bearing s.c. T84 tumours

SMILES | Retention over 2 hours [1] | Tumour/liver [1] | RC at 2 hours p.i. [1] | RR at 2 hours p.i. (relative retention) [1] | reduction of uptake by co-injection of ST peptide (T84 tumours) | uptake into colorectal tumours versus tumours of non-colonic origin [2] | retention in xenograft tumours [3] | Ki [4] | uptake into tumour (FIG. 5) [5]
C/C(=N/O)C(C)(C)NCCN(CCNC(=O)CCC(=O)N[C@H]1CSSC[C@@H]2NC(=O)[C@@H]3CSSC[C@@H](C(=O)N[C@@H](Cc4ccc(O)cc4)C(=O)O)NC(=O)CNC(=O)[C@H](C)NC(=O)[C@H](CSSC[C@H](NC1=O)C(=O)N[C@@H](CCC(=O)O)C(=O)N[C@@H](CC(C)C)C(=O)N3)NC(=O)[C@H](C)NC(=O)[C@@H]1CCCN1C(=O)[C@H](CC(N)=O)NC2=O)CCNC(C)(C)/C(C)=N\O [CA1-ST5-18] | 20 | 12.4 | 0.32 | 6.4 | 40% | significantly higher uptake | comparatively higher retention |  | 
CC(C)C[C@@H]1NC(=O)[C@H](CCC(=O)O)NC(=O)[C@@H]2CSSC[C@@H]3NC(=O)[C@H](C)NC(=O)[C@@H]4CCCN4C(=O)[C@H](CC(N)=O)NC(=O)[C@H](CSSC[C@H](NC(=O)[C@H](Cc4ccc(O)cc4)NC(=O)[C@H](Cc4ccccc4)NC(=O)[C@@H](NC(=O)[C@@H](N)CC(N)=O)[C@@H](C)O)C(=O)N2)NC(=O)[C@H](CSSC[C@@H](C(=O)O)NC(=O)CNC(=O)[C@H](C)NC3=O)NC1=O [ST1-17, reference compound] |  |  |  |  |  |  |  | 0.6 nM | 
C/C(=N/O)C(C)(C)NCCN(CCNC(=O)CCC(=O)NCC(=O)NCC(=O)NCC(=O)NC(CCC(=O)O)C(=O)NC(CCC(=O)O)C(=O)NC(CCC(=O)O)C(=O)N[C@H]1CSSC[C@@H]2NC(=O)[C@@H]3CSSC[C@@H](C(=O)N[C@@H](Cc4ccc(O)cc4)C(=O)O)NC(=O)CNC(=O)[C@H](C)NC(=O)[C@H](CSSC[C@H](NC1=O)C(=O)N[C@@H](CCC(=O)O)C(=O)N[C@@H](CC(C)C)C(=O)N3)NC(=O)[C@H](C)NC(=O)[C@@H]1CCCN1C(=O)[C@H](CC(N)=O)NC2=O)CCNC(C)(C)/C(C)=N\O (stereo partly shown) [CA1-gly3-Dglu3-ST5-18] | 5.5 | 0.63 | 0.08 | 1.9 |  |  |  |  | 
CCOC(C)SCC(=O)NC(CCCC(=O)N[C@H]1CSSC[C@@H]2NC(=O)[C@@H]3CSSC[C@@H](C(=O)N[C@@H](Cc4ccc(O)cc4)C(=O)O)NC(=O)CNC(=O)[C@H](C)NC(=O)[C@H](CSSC[C@H](NC1=O)C(=O)N[C@@H](CCC(=O)O)C(=O)N[C@@H](CC(C)C)C(=O)N3)NC(=O)[C@H](C)NC(=O)[C@@H]1CCCN1C(=O)[C@H](CC(N)=O)NC2=O)C(=O)NCC(=O)NCC(=O)O (stereo partly shown) [CA3-ST5-18] | 30 | 2 | 0.24 | 2.5 |  |  |  |  | 
CCOC(C)SCC(=O)NC(CCCC(=O)N[C@@H](C)C(=O)N[C@@H](C)C(=O)N[C@@H](CCC(=O)O)C(=O)N[C@@H](CC(C)C)C(=O)N[C@@H](C)C(=O)N[C@@H](C)C(=O)N[C@@H](CC(N)=O)C(=O)N1CCC[C@H]1C(=O)N[C@@H](C)C(=O)N[C@@H](C)C(=O)N[C@@H](C)C(=O)NCC(=O)N[C@@H](C)C(=O)N[C@@H](Cc1ccc(O)cc1)C(=O)O)C(=O)NCC(=O)NCC(=O)O (stereo partly shown) [CA3-ST5-18(cys-ala), reference compound] (X1-AAELAANPAAAGAY-OH) | 8 | 0.08 | 0.1 | 0.17 |  |  | Low retention |  | poor uptake
